Values of other authors as cited in patent publication US8927599B2, “Use of statins as anticonvulsants, antiepileptics and neuroprotectors” (Neuron Biopharma, S.A., priority 2008, dated 2015).
At least one compound was matched to its structure with a doubt left.

Test system: mice
Conditions: Ling et al., Ann Neurol. 2006; cited from earlier work

CCC(C)(C)C(=O)O[C@H]1C[C@@H](C)C=C2C=C[C@H](C)[C@H](CC[C@@H]3C[C@@H](O)CC(=O)O3)[C@H]21 [simvastatin]
memory and learning capacity: intensifies the memory and learning capacity
